# Laboratory results published in paper PMC8213057, “Targeting ALK2: An Open Science Approach to Developing Therapeutics for the Treatment of Diffuse Intrinsic Pontine Glioma” (Journal of Medicinal Chemistry, 2020).
# Sequences of proteins named here, by UniProt entry; tags and fusion partners are left off. A change or cut given only in a name is not applied to a line headed by its entry. Residues count along the entry.
# UniProt Q04912, 25-1400: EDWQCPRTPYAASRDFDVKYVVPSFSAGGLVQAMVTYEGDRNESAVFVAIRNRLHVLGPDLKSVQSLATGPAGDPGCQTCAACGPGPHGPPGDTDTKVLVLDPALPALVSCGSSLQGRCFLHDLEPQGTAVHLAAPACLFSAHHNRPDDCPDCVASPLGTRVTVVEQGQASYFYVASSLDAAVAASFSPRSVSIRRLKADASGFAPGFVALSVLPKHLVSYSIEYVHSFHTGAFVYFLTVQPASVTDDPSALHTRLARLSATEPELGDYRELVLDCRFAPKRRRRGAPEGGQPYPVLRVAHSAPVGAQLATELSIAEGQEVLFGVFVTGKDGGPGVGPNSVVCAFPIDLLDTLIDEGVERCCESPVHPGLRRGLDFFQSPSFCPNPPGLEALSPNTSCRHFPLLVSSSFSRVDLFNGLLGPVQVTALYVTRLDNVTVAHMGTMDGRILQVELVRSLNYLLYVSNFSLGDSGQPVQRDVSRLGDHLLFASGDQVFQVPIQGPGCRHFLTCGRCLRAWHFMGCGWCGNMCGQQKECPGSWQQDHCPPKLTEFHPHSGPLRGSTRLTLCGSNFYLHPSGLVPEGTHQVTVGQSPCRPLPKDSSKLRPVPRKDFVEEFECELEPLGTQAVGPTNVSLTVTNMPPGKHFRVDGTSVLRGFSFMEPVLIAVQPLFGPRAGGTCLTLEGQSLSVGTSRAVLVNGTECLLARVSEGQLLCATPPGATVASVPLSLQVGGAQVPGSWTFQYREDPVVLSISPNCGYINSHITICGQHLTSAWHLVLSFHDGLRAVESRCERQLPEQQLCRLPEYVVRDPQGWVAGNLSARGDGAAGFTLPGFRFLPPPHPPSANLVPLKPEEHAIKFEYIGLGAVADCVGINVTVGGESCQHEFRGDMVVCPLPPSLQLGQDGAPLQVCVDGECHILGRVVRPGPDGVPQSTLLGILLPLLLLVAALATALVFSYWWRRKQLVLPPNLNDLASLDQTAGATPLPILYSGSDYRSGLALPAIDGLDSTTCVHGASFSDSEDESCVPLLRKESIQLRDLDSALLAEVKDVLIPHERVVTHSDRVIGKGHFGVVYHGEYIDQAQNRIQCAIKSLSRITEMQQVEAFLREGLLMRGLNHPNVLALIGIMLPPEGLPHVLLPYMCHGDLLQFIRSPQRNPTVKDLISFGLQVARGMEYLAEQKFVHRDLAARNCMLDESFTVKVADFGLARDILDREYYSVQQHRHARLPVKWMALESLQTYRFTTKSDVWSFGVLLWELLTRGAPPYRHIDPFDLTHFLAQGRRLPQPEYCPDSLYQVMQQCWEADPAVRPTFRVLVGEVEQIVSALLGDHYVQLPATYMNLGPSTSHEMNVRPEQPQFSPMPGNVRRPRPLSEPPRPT
# UniProt Q9NY57, whole entry: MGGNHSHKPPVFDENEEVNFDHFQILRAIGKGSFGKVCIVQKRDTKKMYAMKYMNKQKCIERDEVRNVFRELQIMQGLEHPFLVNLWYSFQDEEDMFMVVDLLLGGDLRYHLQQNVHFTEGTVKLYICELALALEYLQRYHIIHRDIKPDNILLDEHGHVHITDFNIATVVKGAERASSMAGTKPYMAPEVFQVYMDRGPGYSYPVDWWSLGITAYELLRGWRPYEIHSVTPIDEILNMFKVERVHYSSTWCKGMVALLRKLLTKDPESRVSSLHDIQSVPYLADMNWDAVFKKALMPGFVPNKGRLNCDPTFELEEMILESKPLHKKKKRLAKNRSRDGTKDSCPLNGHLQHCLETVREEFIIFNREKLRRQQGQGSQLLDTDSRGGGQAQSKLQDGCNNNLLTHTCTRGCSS
# UniProt Q15418, whole entry: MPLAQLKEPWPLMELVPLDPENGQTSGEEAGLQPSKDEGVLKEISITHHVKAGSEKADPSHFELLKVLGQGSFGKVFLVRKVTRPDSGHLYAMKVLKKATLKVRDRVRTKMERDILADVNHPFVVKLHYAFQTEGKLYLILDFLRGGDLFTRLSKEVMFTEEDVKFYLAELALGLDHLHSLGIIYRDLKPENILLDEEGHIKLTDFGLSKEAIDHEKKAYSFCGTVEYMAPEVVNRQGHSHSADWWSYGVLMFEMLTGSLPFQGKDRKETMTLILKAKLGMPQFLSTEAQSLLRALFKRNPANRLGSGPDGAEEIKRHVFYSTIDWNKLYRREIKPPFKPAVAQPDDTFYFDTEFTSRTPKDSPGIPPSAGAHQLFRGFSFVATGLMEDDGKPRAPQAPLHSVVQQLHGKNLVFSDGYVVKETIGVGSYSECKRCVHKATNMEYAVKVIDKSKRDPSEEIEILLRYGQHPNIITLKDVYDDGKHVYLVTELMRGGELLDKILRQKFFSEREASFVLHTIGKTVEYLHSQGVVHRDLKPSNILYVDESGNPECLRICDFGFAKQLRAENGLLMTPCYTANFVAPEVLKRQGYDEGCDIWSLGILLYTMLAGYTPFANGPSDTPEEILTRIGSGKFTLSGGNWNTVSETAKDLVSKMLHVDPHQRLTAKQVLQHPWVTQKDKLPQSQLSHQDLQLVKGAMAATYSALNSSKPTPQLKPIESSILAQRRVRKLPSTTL
# UniProt Q05397, whole entry: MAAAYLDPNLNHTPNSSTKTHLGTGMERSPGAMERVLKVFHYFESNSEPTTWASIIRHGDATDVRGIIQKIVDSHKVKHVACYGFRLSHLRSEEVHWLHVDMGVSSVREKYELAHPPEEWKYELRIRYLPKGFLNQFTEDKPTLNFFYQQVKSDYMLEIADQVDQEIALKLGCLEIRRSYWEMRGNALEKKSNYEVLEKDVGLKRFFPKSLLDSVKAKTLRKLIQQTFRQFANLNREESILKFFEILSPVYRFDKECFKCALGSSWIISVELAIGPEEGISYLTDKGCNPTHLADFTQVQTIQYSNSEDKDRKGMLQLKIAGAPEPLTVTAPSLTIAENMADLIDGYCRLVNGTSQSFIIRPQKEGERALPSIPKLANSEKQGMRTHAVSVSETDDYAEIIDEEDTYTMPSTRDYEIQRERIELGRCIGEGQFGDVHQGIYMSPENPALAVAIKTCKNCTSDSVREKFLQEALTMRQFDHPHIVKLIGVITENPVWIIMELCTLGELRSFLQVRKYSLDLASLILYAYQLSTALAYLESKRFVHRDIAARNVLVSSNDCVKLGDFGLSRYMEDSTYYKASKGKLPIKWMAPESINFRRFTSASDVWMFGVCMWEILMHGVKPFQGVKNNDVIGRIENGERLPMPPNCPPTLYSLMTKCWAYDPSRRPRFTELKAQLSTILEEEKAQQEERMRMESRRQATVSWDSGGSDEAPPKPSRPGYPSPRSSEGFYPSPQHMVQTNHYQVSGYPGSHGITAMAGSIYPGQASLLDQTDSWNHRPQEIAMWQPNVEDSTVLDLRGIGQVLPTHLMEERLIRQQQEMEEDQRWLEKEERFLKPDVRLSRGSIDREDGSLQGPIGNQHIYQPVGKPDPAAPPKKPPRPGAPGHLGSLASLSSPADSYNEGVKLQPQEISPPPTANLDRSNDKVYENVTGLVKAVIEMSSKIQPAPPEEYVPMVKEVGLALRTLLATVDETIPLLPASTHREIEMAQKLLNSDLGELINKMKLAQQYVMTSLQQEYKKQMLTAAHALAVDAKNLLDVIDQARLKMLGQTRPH
# UniProt P41240: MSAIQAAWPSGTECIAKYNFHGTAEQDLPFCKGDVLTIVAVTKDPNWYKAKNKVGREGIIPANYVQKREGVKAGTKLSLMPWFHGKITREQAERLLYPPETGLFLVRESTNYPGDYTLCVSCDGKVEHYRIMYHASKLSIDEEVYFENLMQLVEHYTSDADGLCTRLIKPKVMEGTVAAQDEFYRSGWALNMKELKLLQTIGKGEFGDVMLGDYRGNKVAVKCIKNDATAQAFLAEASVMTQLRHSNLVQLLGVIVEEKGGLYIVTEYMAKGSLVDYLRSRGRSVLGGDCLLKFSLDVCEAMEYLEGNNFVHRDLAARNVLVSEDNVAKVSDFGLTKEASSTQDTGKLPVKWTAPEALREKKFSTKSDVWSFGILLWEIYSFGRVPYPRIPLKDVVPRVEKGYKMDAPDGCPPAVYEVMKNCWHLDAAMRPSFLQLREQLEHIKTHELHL
# UniProt Q99986, whole entry, species assumed: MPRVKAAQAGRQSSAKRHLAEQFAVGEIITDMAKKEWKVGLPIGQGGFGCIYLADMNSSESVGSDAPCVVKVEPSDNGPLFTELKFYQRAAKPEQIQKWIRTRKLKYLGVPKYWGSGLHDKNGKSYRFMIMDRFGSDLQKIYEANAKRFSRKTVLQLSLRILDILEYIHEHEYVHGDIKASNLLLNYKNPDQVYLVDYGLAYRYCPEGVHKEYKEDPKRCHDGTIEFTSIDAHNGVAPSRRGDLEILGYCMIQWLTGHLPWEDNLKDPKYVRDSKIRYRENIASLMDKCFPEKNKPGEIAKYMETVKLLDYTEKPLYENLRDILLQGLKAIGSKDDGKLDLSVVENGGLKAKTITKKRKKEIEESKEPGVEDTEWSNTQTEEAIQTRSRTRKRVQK
# UniProt Q9HBY8: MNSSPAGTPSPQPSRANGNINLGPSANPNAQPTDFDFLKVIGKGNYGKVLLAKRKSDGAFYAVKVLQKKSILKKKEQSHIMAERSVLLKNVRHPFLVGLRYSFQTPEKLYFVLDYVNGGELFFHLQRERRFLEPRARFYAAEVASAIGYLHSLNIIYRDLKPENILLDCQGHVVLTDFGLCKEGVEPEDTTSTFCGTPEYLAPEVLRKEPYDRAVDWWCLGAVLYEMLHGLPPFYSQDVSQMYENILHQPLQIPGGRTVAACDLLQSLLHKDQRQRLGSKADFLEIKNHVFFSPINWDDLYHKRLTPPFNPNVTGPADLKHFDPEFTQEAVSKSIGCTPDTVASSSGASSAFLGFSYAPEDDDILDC
# UniProt P53671: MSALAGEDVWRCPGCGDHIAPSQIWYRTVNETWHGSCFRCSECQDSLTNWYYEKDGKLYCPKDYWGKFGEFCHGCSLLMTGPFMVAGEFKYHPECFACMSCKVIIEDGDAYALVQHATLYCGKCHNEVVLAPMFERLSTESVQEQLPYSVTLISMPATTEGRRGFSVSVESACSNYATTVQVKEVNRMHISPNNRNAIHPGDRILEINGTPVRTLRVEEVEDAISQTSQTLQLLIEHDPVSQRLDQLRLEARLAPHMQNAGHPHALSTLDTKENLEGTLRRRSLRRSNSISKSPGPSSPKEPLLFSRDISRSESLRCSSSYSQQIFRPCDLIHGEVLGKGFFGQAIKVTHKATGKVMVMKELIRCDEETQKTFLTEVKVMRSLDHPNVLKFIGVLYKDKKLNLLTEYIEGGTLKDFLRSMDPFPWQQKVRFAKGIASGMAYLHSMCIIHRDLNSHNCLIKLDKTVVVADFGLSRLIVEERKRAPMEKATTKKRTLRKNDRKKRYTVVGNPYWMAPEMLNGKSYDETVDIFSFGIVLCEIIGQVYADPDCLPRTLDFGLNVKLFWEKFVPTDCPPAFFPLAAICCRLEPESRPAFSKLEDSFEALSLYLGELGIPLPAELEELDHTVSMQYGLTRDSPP
# UniProt P48729: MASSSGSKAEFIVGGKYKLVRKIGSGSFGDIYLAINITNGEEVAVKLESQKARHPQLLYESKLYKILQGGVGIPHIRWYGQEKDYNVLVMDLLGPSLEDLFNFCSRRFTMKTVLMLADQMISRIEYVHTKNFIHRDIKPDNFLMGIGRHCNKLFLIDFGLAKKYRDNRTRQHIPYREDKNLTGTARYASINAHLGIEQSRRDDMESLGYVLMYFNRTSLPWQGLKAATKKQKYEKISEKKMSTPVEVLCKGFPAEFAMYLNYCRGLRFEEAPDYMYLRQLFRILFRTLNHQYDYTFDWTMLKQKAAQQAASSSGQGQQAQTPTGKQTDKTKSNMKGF
# UniProt Q15569: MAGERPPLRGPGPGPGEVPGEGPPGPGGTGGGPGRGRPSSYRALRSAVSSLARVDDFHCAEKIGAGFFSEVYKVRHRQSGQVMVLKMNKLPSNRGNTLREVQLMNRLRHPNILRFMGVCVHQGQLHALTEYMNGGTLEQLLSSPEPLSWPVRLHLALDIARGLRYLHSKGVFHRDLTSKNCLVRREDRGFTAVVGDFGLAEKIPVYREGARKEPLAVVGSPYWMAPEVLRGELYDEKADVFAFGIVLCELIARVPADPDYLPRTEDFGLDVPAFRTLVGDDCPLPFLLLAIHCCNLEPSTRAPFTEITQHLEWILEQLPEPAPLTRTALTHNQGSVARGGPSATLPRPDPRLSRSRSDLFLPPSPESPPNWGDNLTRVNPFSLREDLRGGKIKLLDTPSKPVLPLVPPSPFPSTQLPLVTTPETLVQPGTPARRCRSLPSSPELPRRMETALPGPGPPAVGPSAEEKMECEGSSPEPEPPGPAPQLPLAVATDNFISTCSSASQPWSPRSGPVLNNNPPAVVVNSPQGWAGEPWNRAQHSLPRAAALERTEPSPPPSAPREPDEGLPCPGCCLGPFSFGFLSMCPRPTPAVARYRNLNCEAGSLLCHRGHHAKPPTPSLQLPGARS
# Key:
# CAMK2d = CAMK2d (Homo sapiens, UniProt Q13557); conditions: 1 μM; Run 1, Run 2
# RON/MST1R = RON/MST1R (Homo sapiens, UniProt Q04912); conditions: 1 μM; Run 1, Run 2
# DAPK1 = DAPK1 (Homo sapiens, UniProt P53355); assay: biochemical; conditions: read-out: % enzyme activity, 1 μM; Run 1, Run 2
# LCK = LCK (Homo sapiens, UniProt P06239); assay: biochemical; conditions: read-out: % enzyme activity, 1 μM; Run 1, Run 2
# DYRK4 = DYRK4 (Homo sapiens, UniProt Q9NR20); assay: biochemical; conditions: read-out: % enzyme activity, 1 μM; Run 1, Run 2
# STK32B/YANK2 = STK32B/YANK2 (Homo sapiens, UniProt Q9NY57); conditions: 1 μM; Run 1, Run 2
# FGFR1 = FGFR1 (Homo sapiens, UniProt P11362); assay: biochemical; conditions: read-out: % enzyme activity, 1 μM; Run 1, Run 2
# NEK4 = NEK4 (Homo sapiens, UniProt P51957); assay: biochemical; conditions: read-out: % enzyme activity, 1 μM; Run 1, Run 2
# TAOK2/TAO1 = TAOK2/TAO1 (Homo sapiens, UniProt Q9UL54); assay: biochemical; conditions: read-out: % enzyme activity, 1 μM; Run 1, Run 2
# PLK1 = PLK1 (Homo sapiens, UniProt P53350); conditions: 1 μM; Run 1, Run 2
# MKK6 = MKK6 (Homo sapiens, UniProt P52564); conditions: 1 μM; Run 1, Run 2
# c-Src = c-Src (Homo sapiens, UniProt P12931); conditions: 1 μM; Run 1, Run 2
# CDK3/cyclin E2 = CDK3/cyclin E2 (Homo sapiens, UniProt Q00526); assay: biochemical; conditions: read-out: % enzyme activity, 1 μM; Run 1, Run 2
# RSK1 = RSK1 (Homo sapiens, UniProt Q15418); conditions: 1 μM; Run 1, Run 2
# CAMK2g = CAMK2g (Homo sapiens, UniProt Q13555); conditions: 1 μM; Run 1, Run 2
# CDK19/cyclin C = CDK19/cyclin C (Homo sapiens, UniProt Q9BWU1); conditions: 1 μM; Run 1, Run 2
# MUSK = MUSK (Homo sapiens, UniProt O15146); conditions: 1 μM; Run 1, Run 2
# ERK2/MAPK1 = ERK2/MAPK1 (Homo sapiens, UniProt P28482); conditions: 1 μM; Run 1, Run 2
# FAK/PTK2 [1] = biological target: T1, FAK/PTK2 (Homo sapiens, UniProt Q05397); assay: biochemical; conditions: read-out: % enzyme activity, 1 μM; Run 1, Run 2
# DLK/MAP3K12 = DLK/MAP3K12 (Homo sapiens, UniProt Q12852); assay: biochemical; conditions: read-out: % enzyme activity, 1 μM; Run 1, Run 2
# CSK = CSK (Homo sapiens, UniProt P41240); conditions: 1 μM; Run 1, Run 2
# ALK = ALK (Homo sapiens, UniProt Q9UM73); conditions: 1 μM; Run 1, Run 2
# MAPKAPK5/PRAK = MAPKAPK5/PRAK (Homo sapiens, UniProt Q8IW41); conditions: 1 μM; Run 1, Run 2
# SIK3 = SIK3 (Homo sapiens, UniProt Q9Y2K2); conditions: 1 μM; Run 1, Run 2
# VRK1 = VRK1 (Homo sapiens, UniProt Q99986); assay: biochemical; conditions: read-out: % enzyme activity, 1 μM; Run 1, Run 2
# SGK2 = SGK2 (Homo sapiens, UniProt Q9HBY8); conditions: 1 μM; Run 1, Run 2
# MASTL = MASTL (Homo sapiens, UniProt Q96GX5); assay: biochemical; conditions: read-out: % enzyme activity, 1 μM; Run 1, Run 2
# LIMK2 = LIMK2 (Homo sapiens, UniProt P53671); assay: biochemical; conditions: read-out: % enzyme activity, 1 μM; Run 1, Run 2
# CDK5/p35 = CDK5/p35 (Homo sapiens, UniProt Q00535); conditions: 1 μM; Run 1, Run 2
# CTK/MATK = CTK/MATK (Homo sapiens, UniProt P42679); conditions: 1 μM; Run 1, Run 2
# FAK/PTK2 [2] = biological target: T1, FAK/PTK2; conditions: 1 μM; Run 1, Run 2
# MYLK4 = MYLK4 (Homo sapiens, UniProt Q86YV6); assay: biochemical; conditions: read-out: % enzyme activity, 1 μM; Run 1, Run 2
# NEK7 = NEK7 (Homo sapiens, UniProt Q8TDX7); assay: biochemical; conditions: read-out: % enzyme activity, 1 μM; Run 1, Run 2
# CK1a1 [3] = biological target: T2, CK1a1 (Homo sapiens, UniProt P48729); assay: biochemical; conditions: read-out: % enzyme activity, 1 μM; Run 1, Run 2
# CK1a1 [4] = biological target: T2, CK1a1; conditions: 1 μM; Run 1, Run 2
# TESK1 = TESK1 (Homo sapiens, UniProt Q15569); assay: biochemical; conditions: read-out: % enzyme activity, 1 μM; Run 1, Run 2
# SNARK/NUAK2 = SNARK/NUAK2 (Homo sapiens, UniProt Q9H093); conditions: 1 μM; Run 1, Run 2
# ABL1 = ABL1 (Homo sapiens, UniProt P00519); assay: biochemical; conditions: read-out: % enzyme activity, 1 μM; Run 1, Run 2
# p70S6K/RPS6KB1 = p70S6K/RPS6KB1 (Homo sapiens, UniProt P23443); conditions: 1 μM; Run 1, Run 2
# CLK4 = CLK4 (Homo sapiens, UniProt Q9HAZ1); assay: biochemical; conditions: read-out: % enzyme activity, 1 μM; Run 1, Run 2
# NEK1 = NEK1 (Homo sapiens, UniProt Q96PY6); assay: biochemical; conditions: read-out: % enzyme activity, 1 μM; Run 1, Run 2
# TTBK1 = TTBK1 (Homo sapiens, UniProt Q5TCY1); assay: biochemical; conditions: read-out: % enzyme activity, 1 μM; Run 1, Run 2
# FGFR4 = FGFR4 (Homo sapiens, UniProt P22455); conditions: 1 μM; Run 1, Run 2
smiles,measurement,setting,value
"COc1cc(-c2cncc(-c3ccc(N4CCN(C(C)C)CC4)cc3)c2C)cc(F)c1C(N)=O [Compound 26b, 2-Fluoro-4-(5-(4-(4-isopropylpiperazin-1-yl)phenyl)-4-methylpyridin-3-yl)-6-methoxybenzamide]",% enzyme activity,CAMK2d,93.45%
same,% enzyme activity,RON/MST1R,108.77%
same,remaining activity at 1 µM,DAPK1,98.5%
same,remaining activity at 1 µM,LCK,97%
same,remaining activity at 1 µM,DYRK4,97.2%
same,% enzyme activity,STK32B/YANK2,82.92%
same,remaining activity at 1 µM,FGFR1,102%
same,remaining activity at 1 µM,NEK4,101%
same,remaining activity at 1 µM,TAOK2/TAO1,82.3%
same,% enzyme activity,PLK1,97.79%
same,% enzyme activity,MKK6,64.71%
same,% enzyme activity,c-Src,98.08%
same,remaining activity at 1 µM,CDK3/cyclin E2,85.1%
same,% enzyme activity,RSK1,95.84%
same,% enzyme activity,CAMK2g,96.27%
same,% enzyme activity,CDK19/cyclin C,82.07%
same,% enzyme activity,MUSK,88.04%
same,% enzyme activity,ERK2/MAPK1,88.25%
same,remaining activity at 1 µM,FAK/PTK2 [1],87.7%
same,remaining activity at 1 µM,DLK/MAP3K12,94.5%
same,% enzyme activity,CSK,92.13%
same,% enzyme activity,ALK,102.24%
same,% enzyme activity,MAPKAPK5/PRAK,95.81%
same,% enzyme activity,SIK3,71.66%
same,remaining activity at 1 µM,VRK1,109%
same,% enzyme activity,SGK2,94.93%
same,remaining activity at 1 µM,MASTL,94.9%
same,remaining activity at 1 µM,LIMK2,105%
same,% enzyme activity,CDK5/p35,95.08%
same,% enzyme activity,CTK/MATK,94.38%
same,% enzyme activity,FAK/PTK2 [2],96.05%
same,remaining activity at 1 µM,MYLK4,95.9%
same,remaining activity at 1 µM,NEK7,96.8%
same,remaining activity at 1 µM,CK1a1 [3],99.3%
same,% enzyme activity,CK1a1 [4],99.26%
same,remaining activity at 1 µM,TESK1,108%
same,% enzyme activity,SNARK/NUAK2,93.54%
same,remaining activity at 1 µM,ABL1,84.5%
same,% enzyme activity,p70S6K/RPS6KB1,94.87%
same,remaining activity at 1 µM,CLK4,94.9%
same,remaining activity at 1 µM,NEK1,100%
same,remaining activity at 1 µM,TTBK1,96.9%
same,% enzyme activity,FGFR4,94.51%
